Source: the supplement of paper PMC8426693
The other results are listed elsewhere or left out.

How the values were obtained:
Assay in all cases: NMR binding call after quantification (hit when 2 of 3 NMR criteria are met) (binary (1 = binding, 0 = not binding)); higher = binding
Conditions in all cases: RNA concentration 10 µM; fragment concentration 200 µM; 293 K
[1] = test system: SARS-CoV-2 5'-UTR RNA
[2] = test system: SARS-CoV-2 5_SL1 RNA
[3] = test system: SARS-CoV-2 5_SL1234 RNA
[4] = test system: SARS-CoV-2 5_SL2+3 RNA
[5] = test system: SARS-CoV-2 5_SL4 RNA
[6] = test system: SARS-CoV-2 5_SL5 RNA
[7] = test system: SARS-CoV-2 5_SL5a RNA
[8] = test system: SARS-CoV-2 5_SL5b+c RNA
[9] = test system: SARS-CoV-2 5_SL5stem RNA
[10] = test system: SARS-CoV-2 5_SL6 RNA

Measured: NMR binding call

O=c1[nH]cc(N2CCCCC2)c(=O)[nH]1
0: all assays above

CCOC(=O)C1CCN(c2cnccn2)CC1
0: all assays above

CC(=O)Nc1ccccc1OCc1ccccc1
0: all assays above

COc1ccccc1NC(=O)c1ccc(C)s1
0: all assays above

Cl.O=C(CC(F)(F)F)N1CCNCC1
0: all assays above

Fc1ccc(NC2CCOCC2)nc1
0: all assays above

Cc1cc(C)nc(Nc2ccccc2)n1
0: all assays above

N#CCN1CCN(c2cccc(Cl)c2)CC1
0: all assays above

Pulled by structure from the entries so far (2):
N#CCN1CCN(c2cccc(Cl)c2)CC1
0: all assays above

COc1ccccc1NC(=O)c1ccc(C)s1
0: all assays above

Next results follow:

CS(=O)(=O)N1CCC(O)CC1
0: all assays above

CC(=O)NC1CNc2ccccc2C1 (stereo not given)
0: all assays above

CC(=O)N1CCN(C(N)=O)CC1
0: all assays above

Cc1cccc(Nc2ncnc3c2cnn3C)c1
0: all assays above

CSc1nsc(NC(C)=O)n1
0: all assays above

O=C(c1csnn1)N1CCOCC1
0: all assays above

CNC(=O)C1CNCCO1 (stereo not given)
0: all assays above
